Reference: PubChem BioAssay AID1259405 (NCATS, 2018)
Purpose: 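Knock-downs that lift recombinant protein yield in hamster ovary cells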 (primary screen). Cell system: Chinese hamster CHO-K1 ovary cells with stable secreted eGFP expression. Reagents: single siRNA against mouse genes, 0.8 pmol siRNA per well (2 µl of 400 nM stock). Timing: 3 days. Measured: 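Percent of the per-plate non-targeting control median for intracellular GFP per well by laser scanning cytometry and for cell viability by ATP luminescence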. Reading the numbers: GFP, % of control: higher = more GFP per well, higher productivity. Hit rule: 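Called active when intracellular GFP, relative to negative control, is at or above 120%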.
In all, the deposit lists about 50,000 reagents; shown is a part drawn at random. About 4,000 of all reagents (8%) count as active. 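Mouse siRNA library applied to hamster cells; one well for each siRNA.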 Entries without a mark were called inactive. The numbers tell different reagents against one gene apart. Further read-outs or replicates are left out here.

GFP, % of control, by gene and reagent
Zmiz2: #1 104; #2 32.9; #3 121 (active)
Ifitm5: #1 48.6; #2 56.9; #3 81.8
Parp16: #1 49.5; #2 90.1; #3 68.3
Mak: #1 106
Stip1: #1 108; #2 80.7; #3 87
Rfx5: #1 45.2; #2 117; #3 126 (active)
St14: #1 66.4; #2 60.8; #3 73.3
Serinc4: #1 61.7; #2 76.7; #3 101
Slc7a15: #1 84.6; #2 69.6; #3 77.2
Or6b6: #1 165 (active); #2 80.3; #3 58.9
Krtcap2: #1 44.6; #2 118; #3 115
Nktr: #1 112; #2 54.9; #3 49.9
Cdk5r2: #1 65; #2 65.6
Prl7c1: #1 65.3; #2 64.6; #3 48.5
St6gal2: #1 64.8; #2 98.3; #3 93.7

18 entries from above, ordered by “GFP, % of control”, ascending:
gene	siRNA no.	GFP, % of control
Zmiz2	2	32.9
Rfx5	1	45.2
Ifitm5	1	48.6
Parp16	1	49.5
Ifitm5	2	56.9
St14	2	60.8
St14	1	66.4
Parp16	3	68.3
St14	3	73.3
Stip1	2	80.7
Ifitm5	3	81.8
Stip1	3	87
Parp16	2	90.1
Mak	1	106
Stip1	1	108
Rfx5	2	117
Zmiz2	3	121 (active)
Rfx5	3	126 (active)

Further results follow.
GFP, % of control, by gene and reagent
Gm1968: #1 60.3; #2 81.6; #3 93.3
Hnf4a: #1 95.3; #2 96.9
Mageb18: #1 64.3; #2 77.9; #3 158 (active)
Zpbp: #1 78.4; #2 89.3; #3 73.4
Kazald1: #1 65.4; #2 81.2; #3 101
Haus7: #1 86.3; #2 56.4; #3 44.3
Cracd: #1 108; #2 102; #3 140 (active)
Mccc1: #1 82.6; #2 83.4; #3 95.7
Ggt5: #1 79.4; #2 21.9; #3 71.2
Or52e7: #1 81.7; #2 125 (active); #3 80.2
Clec12a: #1 43.4; #2 67.4; #3 78.6
Ahnak: #1 71.5; #2 68.4; #3 67.1
4930503E14Rik: #1 45.1; #2 88.3; #3 106
Or10ag52: #1 153 (active); #2 73.4; #3 52.3
Ap1g2: #1 44.4; #2 88.2; #3 90.2
Emd: #1 64.6; #2 67.3; #3 118
Ifrd2: #1 99.6; #2 70.4; #3 81.8
Ap1m1: #1 95; #2 64
Zscan4c: #1 50.2; #2 42.2; #3 94.7
Gna12: #1 43.1; #2 127 (active); #3 50.3
Bbln: #1 128 (active); #2 69.4; #3 84.7
Unc45a: #1 81.5; #2 82.4; #3 66.7
Ptgfr: #1 86.5; #2 51.8; #3 64.9
